Test results reported in patent publication US20230364265A1.
Results are given in words; binding and its absence hold for the method and conditions named. Some entries that bind do so weakly or less than the wild type. Sequences can lack the tags named with a protein.

Amino acid sequences for entries named in this document (tags omitted). Residues count along the entry.
UniProt P06127, residues 25-372: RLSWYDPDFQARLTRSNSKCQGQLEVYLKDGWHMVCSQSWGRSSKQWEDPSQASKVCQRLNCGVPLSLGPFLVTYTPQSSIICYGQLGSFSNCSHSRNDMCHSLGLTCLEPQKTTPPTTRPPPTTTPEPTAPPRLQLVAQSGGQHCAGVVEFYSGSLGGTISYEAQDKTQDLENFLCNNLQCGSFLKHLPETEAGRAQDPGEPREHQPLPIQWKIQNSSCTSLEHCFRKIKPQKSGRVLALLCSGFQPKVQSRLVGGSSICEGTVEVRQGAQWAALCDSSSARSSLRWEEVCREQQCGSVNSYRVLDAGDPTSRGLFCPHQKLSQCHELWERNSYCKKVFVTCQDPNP

How the values were obtained:
[1] = biological target: labeled CD5 protein (Alexa647-conjugated CD5 protein) (UniProt P06127); assay: flow cytometry, Alexa647-conjugated CD5 protein on transfected 293 cells
[2] = biological target: labeled CD5 protein (Alexa647-conjugated CD5 protein) (UniProt P06127); assay: flow cytometry, labeled CD5 on transfected HEK293T cells

- binding [1]: binds
- binding [2]: binds
B1: CD5-intron-fcr-PI3K (ATAK) recombinant chimeric fusion receptor protein, expressed on HEK293T cells from LINE-1-plasmid_CD5-intron-FCR-PI3K (receptor)
chain: EIQLVQSGGGLVKPGGSVRISCAASGYTFTNYGMNWVRQAPGKGLEWMGWINTHTGEPTYADSFKGRFTFSLDDSKNTAYLQINSLRAEDTAVYFCTRRGYDWYFDVWGQGTTVTVSSGGGGSGGGGSGGGGSDIQMTQSPSSLSASVGDRVTITCRASQDINSYLSWFQQKPGKAPKTLIYRANRLESGVPSRFSGSGSGTDYTLTISSLQYEDFGIYYCQQYDESPWTFGGGTKLEIKSGGGGSGALSNSIMYFSHFVPVFLPAKPTTTPAPRPPTPAPTIASQPLSLRPEACRPAAGGAVHTRGLDIYIWAPLAGTCGVLLLSLVITLYCRRLKIQVRKAAITSYEKSDGVYTGLSTRNQETYETLKHEKPPQGSGSYEDMRGILYAAPQLRSIRGQPGPNHEEDADSYENM
